# Percent effect of library compounds

Source: ChEMBL document CHEMBL3988442, “University of Dundee, Small-Polar-MMV Screening Library” (2021).

Mtb glucose medium: 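Growth of Mycobacterium tuberculosis over 3 days (7H9 medium with glucose and tyloxapol); the read-out is not stated. Concentration: 500 µM. The record gives no direction; compounds that gave an IC50 in retests scored well above the rest, so higher reads as more growth inhibition. Size under these conditions: about 18,000 compounds, about 1,400 of them at 50% or above in at least one test.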
Mtb cholesterol medium: 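Growth of Mycobacterium tuberculosis over 4 days (cholesterol / DPPC medium with tyloxapol); the read-out is not stated. Concentration: 500 µM. Direction is inferred from retests: higher values go with more growth inhibition. Size under these conditions: about 18,000 compounds, about 900 of them at 50% or above in at least one test.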

The filed quantity is “Percent Effect” (%). How 0% and 100% were set is not recorded. Most values in the screen are low, and negative values occur. This is an unselected part of the compounds tested.

{"compound": "Nc1ccn(CCN2CCOCC2)n1", "Mtb glucose medium": -3.361, "Mtb cholesterol medium": -6.84}
{"compound": "NCCNc1ccc2ccccc2n1", "Mtb glucose medium": 38.06, "Mtb cholesterol medium": 16.34}
{"compound": "CCN1C[C@H](NC(=O)c2snnc2C(C)C)[C@@H](OC)C1", "Mtb glucose medium": -0.6144, "Mtb cholesterol medium": -7.927}
{"compound": "Cn1cc(CS(=O)(=O)c2ccccc2F)cn1", "Mtb glucose medium": 14.82, "Mtb cholesterol medium": 1.709}
{"compound": "COc1ccc(CCNC(=O)NCCCC(N)=O)cc1", "Mtb glucose medium": -12.16, "Mtb cholesterol medium": -15.97}
{"compound": "CNC(=O)C(C)Oc1ccc(N(C)S(C)(=O)=O)cc1", "stereo": "centres undefined", "Mtb glucose medium": -1.956, "Mtb cholesterol medium": -15.96}
{"compound": "CC(NC(=O)c1ccco1)c1ccccn1", "stereo": "centres undefined", "Mtb glucose medium": 41.54, "Mtb cholesterol medium": 33.02}
{"compound": "Cn1ccnc1SCC(=O)NC(C)(C)C", "Mtb glucose medium": 10.61, "Mtb cholesterol medium": 19.25}
{"compound": "CC(C)C(=O)N1CCCCC1C", "stereo": "centres undefined", "Mtb glucose medium": 7.549, "Mtb cholesterol medium": 7.722}
{"compound": "CC(=O)c1cccc(OCCN(C)C)c1", "Mtb glucose medium": 8.566, "Mtb cholesterol medium": 7.092}
{"compound": "O=C1CCC2(CCN(CCn3cc(Cl)cn3)CC2)N1", "Mtb glucose medium": 10.24, "Mtb cholesterol medium": 15.45}
{"compound": "O=C(CCn1cccn1)NCC1Cc2ccccc2O1", "stereo": "centres undefined", "Mtb glucose medium": 41.7, "Mtb cholesterol medium": 33.55}
{"compound": "CC(C)(C)NC(=O)CNC(C)(C)c1nccs1", "Mtb glucose medium": 9.517, "Mtb cholesterol medium": 14.88}
{"compound": "CCC(N)(CC)CNS(=O)(=O)c1cccc(C(C)=O)c1", "Mtb glucose medium": -4.21, "Mtb cholesterol medium": -11.02}
{"compound": "CS(=O)(=O)N1CCC(=Cc2ccccc2)CC1", "Mtb glucose medium": -12.11, "Mtb cholesterol medium": -8.422}
{"compound": "NCc1cccc(N2CCCCC2=O)c1", "Mtb glucose medium": -7.83, "Mtb cholesterol medium": -7.809}
{"compound": "CNC(=O)NC(=O)C(C)N1CCN(c2nccs2)CC1", "stereo": "centres undefined", "Mtb glucose medium": 1.96, "Mtb cholesterol medium": -8.783}
{"compound": "NC1CCN(c2ccc(C(F)(F)F)cn2)CC1", "Mtb glucose medium": 77.15, "Mtb cholesterol medium": 57.84}
{"compound": "O=C(Nc1cccc(F)c1)N(CCO)C1CC1", "Mtb glucose medium": 2.04, "Mtb cholesterol medium": -7.181}
{"compound": "CN1CCOC(C(=O)Nc2ncc(Cl)s2)C1", "stereo": "centres undefined", "Mtb glucose medium": 54.09, "Mtb cholesterol medium": 49.48}
{"compound": "OC[C@@H](Cc1ccccc1)NC1CCSC1", "stereo": "some centres undefined", "Mtb glucose medium": 18.21, "Mtb cholesterol medium": 18.7}
{"compound": "O=C(CCN1C(=O)CCC1=O)Nc1ccc(F)cc1", "Mtb glucose medium": -2.138, "Mtb cholesterol medium": -16.25}
{"compound": "O=C1CC(C(=O)N2CCCC3(CCCCC3)C2)CCN1", "stereo": "centres undefined", "Mtb glucose medium": 5.945, "Mtb cholesterol medium": -4.144}
{"compound": "O=C(NCc1ccc(Cl)cn1)N(CCO)CC(F)F", "Mtb glucose medium": 11.93, "Mtb cholesterol medium": 5.259}
{"compound": "CC(C)c1nccn1CCCN", "Mtb glucose medium": 8.878, "Mtb cholesterol medium": 14.16}
{"compound": "Cc1c[nH]c(CN(C)C(=O)CN2CCOCC2)n1", "Mtb glucose medium": -11.92, "Mtb cholesterol medium": -14.28}
{"compound": "COc1ccc(CNC(=O)N2C[C@@H](C)[C@@](C)(O)C2)cc1", "Mtb glucose medium": 17.1, "Mtb cholesterol medium": 10.77}
{"compound": "CCS(=O)(=O)NCCc1nnc(-c2ccccc2)o1", "Mtb glucose medium": 24.05, "Mtb cholesterol medium": 1.272}
{"compound": "O=C(NCCNCCO)c1cc2ccccc2[nH]1", "Mtb glucose medium": 35.82, "Mtb cholesterol medium": 19.56}
{"compound": "CCC(=O)Nc1ccc(N2CCN(C)CC2)cc1C", "Mtb glucose medium": 36.35, "Mtb cholesterol medium": -2.945}
{"compound": "Cc1ccc(C)c(NC(=O)C(C)N2CCC(O)CC2)c1", "stereo": "centres undefined", "Mtb glucose medium": 4.327, "Mtb cholesterol medium": -3.928}
{"compound": "CCn1nccc1C(=O)Nc1ccccc1OC", "Mtb glucose medium": 35.14, "Mtb cholesterol medium": 25.19}
{"compound": "Cc1nc(CN(C)C2CCCNCC2)no1", "stereo": "centres undefined", "Mtb glucose medium": 18.91, "Mtb cholesterol medium": 1.856}

Repeated from the top, 4 entries:

| Compound | Mtb glucose medium | Mtb cholesterol medium |
|---|---|---|
| `Nc1ccn(CCN2CCOCC2)n1` | -3.361% | -6.84% |
| `NCCNc1ccc2ccccc2n1` | 38.06% | 16.34% |
| `CCN1C[C@H](NC(=O)c2snnc2C(C)C)[C@@H](OC)C1` | -0.6144% | -7.927% |
| `Cn1cc(CS(=O)(=O)c2ccccc2F)cn1` | 14.82% | 1.709% |